# PubChem BioAssay AID272 (DTP/NCI, 2004)
# The list does not hold the whole screen: it is rich in T/C values a quarter to a half above the control, in often repeated tests (any T/C) and in doses without a T/C. Other doses and runs of a compound stand elsewhere. T/C gives the treated animals as a percentage of the vehicle group. Some doses have a count of surviving animals in place of a T/C: the source files T/C as zero there, which appears to mark a toxic dose or a test without result, not a measured value. Some survivor counts are full or nearly so, which does not show that the dose was tolerated: survival well below the control is almost never listed, so the zero probably covers shortened survival too. Survivors were counted at the toxicity check, usually on the fifth day, unless a day is given; later deaths do not show. Schedule codes are those of the source, read here as Q, the interval in days (D) or hours (H), X, the number of doses. Brackets with × give the number of equal values in this list. Some entries were tested several times; the results are listed from low to high. Where survival is the endpoint, the PubChem record calls one and a half times the control and up active, and a quarter to a half above the control has no call in these data; cut-offs in other NCI protocols can differ. Some T/C values carry the count of animals alive at the toxicity check (mostly the fifth day); without a count, all were alive then.
# System: Lewis lung carcinoma i.m., BDF1 mice, T/C %
# Assay: NCI In Vivo Anticancer Drug Screen. Data for tumor model Lewis Lung Carcinoma (intramuscular) in B6D2F1 (BDF1) mice
# How it was run: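 Value is the ratio of a treated-group measurement (T) to the matching vehicle-control measurement (C), using either survival or tumour size in mice bearing transplanted tumours.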
# [1] = T/C endpoint: median survival time, dose: 0.78 mg/kg/injection, schedule: Q01DX011 (ip), vehicle: Klucel (hydroxypropylcellulose) (HPC), higher T/C = longer survival
smiles,measurement,setting,value
Nc1nc(SCc2ccccc2)c2[nH]cnc2n1,survivor count,"T/C endpoint: mean tumor weight (est.), dose: 0.78 mg/kg/injection, schedule: Q01DX011 (ip), vehicle: Klucel (hydroxypropylcellulose) (HPC), higher T/C = larger tumour",5 of 8
same,survivor count,"T/C endpoint: mean tumor weight (est.), dose: 3.12 mg/kg/injection, schedule: Q01DX011 (ip), vehicle: saline, higher T/C = larger tumour",5 of 8
same,survivor count,"T/C endpoint: mean tumor weight (est.), dose: 6.25 mg/kg/injection, schedule: Q01DX011 (ip), vehicle: Klucel (hydroxypropylcellulose) (HPC), higher T/C = larger tumour",5 of 8
same,survivor count,"T/C endpoint: mean tumor weight (est.), dose: 12.5 mg/kg/injection, schedule: Q01DX011 (ip), vehicle: Klucel (hydroxypropylcellulose) (HPC), higher T/C = larger tumour",0 of 8
same,survivor count,"T/C endpoint: mean tumor weight (est.), dose: 12.5 mg/kg/injection, schedule: Q01DX011 (ip), vehicle: saline, higher T/C = larger tumour",5 of 8
same,survivor count,"T/C endpoint: mean tumor weight, dose: 6.25 mg/kg/injection, schedule: Q01DX011 (ip), vehicle: Klucel (hydroxypropylcellulose) (HPC), higher T/C = larger tumour",3 of 8
same,survivor count,"T/C endpoint: mean tumor weight, dose: 12.5 mg/kg/injection, schedule: Q01DX011 (ip), vehicle: Klucel (hydroxypropylcellulose) (HPC), higher T/C = larger tumour",1 of 8
same,T/C,"T/C endpoint: median survival time, dose: 0.39 mg/kg/injection, schedule: Q01DX011 (ip), vehicle: Klucel (hydroxypropylcellulose) (HPC), higher T/C = longer survival",127 % of control [7 of 8 alive]
same,T/C,[1],129 % of control [7 of 8 alive]
same,survivor count,[1],5 of 8
same,survivor count,"T/C endpoint: median survival time, dose: 0.78 mg/kg/injection, schedule: Q01DX011 (ip), vehicle: saline, higher T/C = longer survival",7 of 8
same,survivor count,"T/C endpoint: median survival time, dose: 1.56 mg/kg/injection, schedule: Q01DX011 (ip), vehicle: Klucel (hydroxypropylcellulose) (HPC), higher T/C = longer survival",7 of 8
same,T/C,"T/C endpoint: median survival time, dose: 3.12 mg/kg/injection, schedule: Q01DX011 (ip), vehicle: Klucel (hydroxypropylcellulose) (HPC), evaluated on day 12, higher T/C = longer survival",125 % of control [7 of 8 alive]
same,T/C,"T/C endpoint: median survival time, dose: 3.12 mg/kg/injection, schedule: Q01DX011 (ip), vehicle: Klucel (hydroxypropylcellulose) (HPC), evaluated on day 50, higher T/C = longer survival",146 % of control
same,survivor count,"T/C endpoint: median survival time, dose: 3.12 mg/kg/injection, schedule: Q01DX011 (ip), vehicle: saline, higher T/C = longer survival",5 of 8
same,survivor count,"T/C endpoint: median survival time, dose: 6.25 mg/kg/injection, schedule: Q01DX011 (ip), vehicle: Klucel (hydroxypropylcellulose) (HPC), higher T/C = longer survival",3 of 8 and 5 of 8
same,survivor count,"T/C endpoint: median survival time, dose: 12.5 mg/kg/injection, schedule: Q01DX011 (ip), vehicle: Klucel (hydroxypropylcellulose) (HPC), higher T/C = longer survival",0 of 8 and 1 of 8
same,survivor count,"T/C endpoint: median survival time, dose: 12.5 mg/kg/injection, schedule: Q01DX011 (ip), vehicle: saline, higher T/C = longer survival",5 of 8
NC(=S)N/N=C/c1ccc(O)cn1,T/C,"T/C endpoint: median survival time, dose: 20.0 mg/kg/injection, schedule: Q03HX024 (ip), vehicle: other, higher T/C = longer survival",127 % of control [7 of 8 alive]
same,survivor count,"T/C endpoint: median survival time, dose: 40.0 mg/kg/injection, schedule: Q03HX024 (ip), vehicle: other, higher T/C = longer survival",6 of 8
same,T/C,"T/C endpoint: median survival time, dose: 50.0 mg/kg/injection, schedule: Q01DX009 (ip), vehicle: other, higher T/C = longer survival",144 % of control
same,T/C,"T/C endpoint: median survival time, dose: 50.0 mg/kg/injection, schedule: Q01DX011 (ip), vehicle: other, higher T/C = longer survival",139 % of control
same,T/C,"T/C endpoint: median survival time, dose: 100.0 mg/kg/injection, schedule: Q01DX011 (ip), vehicle: other, higher T/C = longer survival",138 % of control [7 of 8 alive]
same,survivor count,"T/C endpoint: median survival time, dose: 200.0 mg/kg/injection, schedule: Q01DX009 (ip), vehicle: other, higher T/C = longer survival",4 of 8
same,survivor count,"T/C endpoint: median survival time, dose: 200.0 mg/kg/injection, schedule: Q01DX011 (ip), vehicle: other, higher T/C = longer survival",0 of 8 (2×)
same,survivor count,"T/C endpoint: median survival time, dose: 400.0 mg/kg/injection, schedule: Q01DX011 (ip), vehicle: other, higher T/C = longer survival",0 of 8
same,T/C,"T/C endpoint: median survival time, dose: 400.0 mg/kg/injection, schedule: Q04DX003 (ip), vehicle: other, higher T/C = longer survival",131 % of control
same,survivor count,"T/C endpoint: median survival time, dose: 800.0 mg/kg/injection, schedule: Q04DX003 (ip), vehicle: other, higher T/C = longer survival",0 of 8
same,survivor count,"T/C endpoint: median survival time, dose: 1600.0 mg/kg/injection, schedule: Q04DX003 (ip), vehicle: other, higher T/C = longer survival",0 of 8
Nc1ncnc2c1ccn2C1OC(CO)C(O)C1O (stereo not given),survivor count,"T/C endpoint: median survival time, dose: 0.25 mg/kg/injection, schedule: Q01DX011 (ip), vehicle: carboxymethylcellulose (CMC), higher T/C = longer survival",10 of 10
same,survivor count,"T/C endpoint: median survival time, dose: 1.0 mg/kg/injection, schedule: Q01DX009 (ip), vehicle: Klucel (hydroxypropylcellulose) (HPC), higher T/C = longer survival",10 of 10
same,survivor count,"T/C endpoint: median survival time, dose: 1.0 mg/kg/injection, schedule: Q01DX011 (ip), vehicle: carboxymethylcellulose (CMC), higher T/C = longer survival",2 of 10 and 10 of 10
same,survivor count,"T/C endpoint: median survival time, dose: 1.5 mg/kg/injection, schedule: Q01DX011 (ip), vehicle: steroid suspending solution, higher T/C = longer survival",8 of 8
same,survivor count,"T/C endpoint: median survival time, dose: 2.0 mg/kg/injection, schedule: Q01DX009 (ip), vehicle: Klucel (hydroxypropylcellulose) (HPC), higher T/C = longer survival",10 of 10
same,survivor count,"T/C endpoint: median survival time, dose: 2.0 mg/kg/injection, schedule: Q01DX011 (ip), vehicle: carboxymethylcellulose (CMC), higher T/C = longer survival",0 of 10 and 2 of 10
same,survivor count,"T/C endpoint: median survival time, dose: 4.0 mg/kg/injection, schedule: Q01DX009 (ip), vehicle: Klucel (hydroxypropylcellulose) (HPC), higher T/C = longer survival",10 of 10
same,survivor count,"T/C endpoint: median survival time, dose: 4.0 mg/kg/injection, schedule: Q01DX011 (ip), vehicle: carboxymethylcellulose (CMC), higher T/C = longer survival",0 of 10
same,survivor count,"T/C endpoint: median survival time, dose: 8.0 mg/kg/injection, schedule: Q01DX009 (ip), vehicle: Klucel (hydroxypropylcellulose) (HPC), higher T/C = longer survival",6 of 10
same,survivor count,"T/C endpoint: median survival time, dose: 8.0 mg/kg/injection, schedule: Q01DX011 (ip), vehicle: carboxymethylcellulose (CMC), higher T/C = longer survival",0 of 10
same,survivor count,"T/C endpoint: median survival time, dose: 16.0 mg/kg/injection, schedule: Q01DX009 (ip), vehicle: Klucel (hydroxypropylcellulose) (HPC), higher T/C = longer survival",1 of 10
same,survivor count,"T/C endpoint: median survival time, dose: 16.0 mg/kg/injection, schedule: Q01DX011 (ip), vehicle: carboxymethylcellulose (CMC), higher T/C = longer survival",0 of 10
same,survivor count,"T/C endpoint: median tumor weight (est.), dose: 1.5 mg/kg/injection, schedule: Q01DX011 (ip), vehicle: steroid suspending solution, higher T/C = larger tumour",1 of 8
Cc1c[n+]2c3ccccc3c3ccccc3c2s1,survivor count,"T/C endpoint: mean tumor weight, dose: 20.0 mg/kg/injection, schedule: Q01DX011 (ip), vehicle: saline, higher T/C = larger tumour",4 of 8
same,survivor count,"T/C endpoint: mean tumor weight, dose: 40.0 mg/kg/injection, schedule: Q01DX011 (ip), vehicle: saline, higher T/C = larger tumour",3 of 8
same,survivor count,"T/C endpoint: median survival time, dose: 20.0 mg/kg/injection, schedule: Q01DX011 (ip), vehicle: saline with Tween-80, higher T/C = longer survival",4 of 8
same,survivor count,"T/C endpoint: median survival time, dose: 40.0 mg/kg/injection, schedule: Q01DX011 (ip), vehicle: saline with Tween-80, higher T/C = longer survival",3 of 8
same,survivor count,"T/C endpoint: median survival time, dose: 80.0 mg/kg/injection, schedule: Q01DX011 (ip), vehicle: saline with Tween-80, higher T/C = longer survival",0 of 8
C[C@]12CC[C@@H]3c4ccc(O)cc4CC[C@H]3[C@@H]1C[C@@H](O)[C@@H]2O,survivor count,"T/C endpoint: mean tumor weight, dose: 6.25 mg/kg/injection, schedule: Q01DX011 (ip), vehicle: saline with Tween-80, higher T/C = larger tumour",4 of 8
same,survivor count,"T/C endpoint: mean tumor weight, dose: 12.5 mg/kg/injection, schedule: Q01DX011 (ip), vehicle: saline with Tween-80, higher T/C = larger tumour",2 of 8
same,survivor count,"T/C endpoint: mean tumor weight, dose: 50.0 mg/kg/injection, schedule: Q01DX011 (ip), vehicle: saline with Tween-80, higher T/C = larger tumour",2 of 8
same,survivor count,"T/C endpoint: mean tumor weight, dose: 100.0 mg/kg/injection, schedule: Q01DX011 (ip), vehicle: saline with Tween-80, higher T/C = larger tumour",3 of 8
same,survivor count,"T/C endpoint: median survival time, dose: 3.13 mg/kg/injection, schedule: Q01DX011 (ip), vehicle: saline with Tween-80, higher T/C = longer survival",8 of 8
same,survivor count,"T/C endpoint: median survival time, dose: 6.25 mg/kg/injection, schedule: Q01DX011 (ip), vehicle: saline with Tween-80, higher T/C = longer survival",4 of 8
same,survivor count,"T/C endpoint: median survival time, dose: 12.5 mg/kg/injection, schedule: Q01DX011 (ip), vehicle: saline with Tween-80, higher T/C = longer survival",2 of 8
same,survivor count,"T/C endpoint: median survival time, dose: 25.0 mg/kg/injection, schedule: Q01DX011 (ip), vehicle: saline with Tween-80, higher T/C = longer survival",3 of 8
same,survivor count,"T/C endpoint: median survival time, dose: 50.0 mg/kg/injection, schedule: Q01DX011 (ip), vehicle: saline with Tween-80, higher T/C = longer survival",2 of 8
same,survivor count,"T/C endpoint: median survival time, dose: 100.0 mg/kg/injection, schedule: Q01DX011 (ip), vehicle: saline with Tween-80, higher T/C = longer survival",3 of 8
CCOC(N)=O,survivor count,"T/C endpoint: median survival time, dose: 50.0 mg/kg/injection, schedule: Q01DX011 (ip), vehicle: saline, higher T/C = longer survival",6 of 8
CCCCCCCCCCCCCCCCCC[N+](C)(C)C (tested in a mixture with another compound),survivor count,"T/C endpoint: mean tumor weight, dose: 4.0 mg/kg/injection, schedule: Q01DX011 (ip), vehicle: saline, higher T/C = larger tumour",2 of 8
same,survivor count,"T/C endpoint: median survival time, dose: 1.0 mg/kg/injection, schedule: Q01DX011 (ip), vehicle: saline, higher T/C = longer survival",7 of 8
same,survivor count,"T/C endpoint: median survival time, dose: 4.0 mg/kg/injection, schedule: Q01DX011 (ip), vehicle: saline, higher T/C = longer survival",2 of 8
same,survivor count,"T/C endpoint: median survival time, dose: 8.0 mg/kg/injection, schedule: Q01DX011 (ip), vehicle: saline, higher T/C = longer survival",0 of 8
O=c1c(O)c(-c2ccc(O)c(O)c2)oc2cc(O)cc(O)c12,survivor count,"T/C endpoint: median survival time, dose: 400.0 mg/kg/injection, schedule: Q02DX009 (ip), vehicle: saline, higher T/C = longer survival",8 of 8
same,survivor count,"T/C endpoint: median survival time, dose: 800.0 mg/kg/injection, schedule: Q02DX009 (ip), vehicle: saline, higher T/C = longer survival",5 of 8
same,survivor count,"T/C endpoint: median survival time, dose: 1600.0 mg/kg/injection, schedule: Q02DX009 (ip), vehicle: saline, higher T/C = longer survival",2 of 8
